Experimental data from article PMC11100219, “Dual-function antimicrobial-antibiofilm peptide hybrid to tackle biofilm-forming Staphylococcus epidermidis” (Annals of Clinical Microbiology and Antimicrobials, 2024).
Residues, ends and D or L forms follow the SMILES beside them.

What was measured:
Assay type in all cases: cell-based
[1] = system: all gram-negative bacterial strains; assay: Mean MIC and therapeutic index, gram-negative strains; settings: ratio of MHC to GM of MICs, MHC >250 taken as 500, <0.98 as 0.49 µg/mL
Method: (§1) The minimal inhibitory concentrations (MICs) of peptide derivatives versus planktonic bacteria were assessed using a modification of the broth microdilution assay previously described in the National Committee for Clinical Laboratory Standards (NCCLS). In brief, bacteria at mid-logarithmic growth were collected by centrifugation at 2,500 × g for 5 min. Subsequently, the pellet was resuspended and adjusted in Mueller-Hinton Broth (MHB; BD Bacto™, USA) to an OD620 of 0.05. Fifty µL of bacterial suspensions was transferred to 96-well microplates. Later, 50 µL of peptide derivatives at 0.98–250 µg/mL in 10 mM PBS, was added to wells and incubated for 24 h at 37°C with continuous shaking at 220 rpm. […] The experiments were done in three technical replicates and repeated independently.
(§2) The therapeutic index (TI) is widely used for evaluating a peptide’s efficacy and safety. It is the ratio between the minimum hemolytic concentration (MHC, the concentration causing 10% hemolysis) and the geometric mean (GM) value of the MIC [15]. […] While, both lysine-substituted peptides (BiF2_7K and BiF2_5K7K) had higher TIs against all tested biofilm-forming bacteria than did the two parent peptides, and the TI of BiF2_5K7K was higher than that of BiF2_7K.

[2] = system: all gram-positive bacterial strains; assay: Mean MIC and therapeutic index, gram-positive strains; settings: ratio of MHC to GM of MICs, MHC >250 taken as 500, <0.98 as 0.49 µg/mL
Method: as §1, §2

biofilm-forming bacteria = assay: Antibacterial activity against the panel of planktonic biofilm-forming bacteria; settings: gram-positive and gram-negative TI together
Method: The biofilm-forming bacteria, including S. epidermidis ATCC 35984, Staphylococcus aureus ATCC 25923, Bacillus cereus ATCC 11778, Listeria monocytogenes 10403s, Pseudomonas aeruginosa ATCC 27853, Salmonella Typhimurium ATCC 13311, Escherichia coli ATCC 25922 and Acinetobacter baumanii MT strain, were used. All bacterial strains were grown on tryptic soy agar (TSA; BD Bacto™, USA) except E. coli and L. monocytogenes which were cultured on Luria agar (LA) and TSA supplemented with 0.6% Yeast Extract (TSAYE), respectively, at 37°C overnight. Subsequently, isolated colonies were inoculated and cultured in 5 mL of tryptic soy broth (TSB; BD Bacto™, USA), Luria Broth (LB), or TSB supplemented with 0.6% Yeast Extract (TSBYE) at 37°C for 16–18 h.
as §1

Row | Compound | TI-, therapeutic index [1] | TI +, therapeutic index [2] | therapeutic index (TI) (biofilm-forming bacteria)
1 | CC[C@H](C)[C@H](NC(=O)[C@H](CC(C)C)NC(=O)[C@H](CCCCN)NC(=O)[C@@H](NC(=O)[C@H](CC(C)C)NC(=O)[C@@H](N)Cc1ccccc1)C(C)C)C(=O)N[C@@H](CCCCN)C(=O)N[C@@H](CCCCN)C(=O)N[C@H](C(=O)N[C@@H](CC(C)C)C(=O)N[C@@H](CCCNC(=N)N)C(=O)N[C@@H](CCCNC(=N)N)C(N)=O)[C@@H](C)CC [BiF2_7K] (H-FLVKLIKKILRR-NH2; N-terminus assumed) | 1 | 1.60 | 
2 | CC[C@H](C)[C@H](NC(=O)[C@H](CC(C)C)NC(=O)[C@H](CCCCN)NC(=O)[C@@H](NC(=O)[C@H](CC(C)C)NC(=O)[C@@H](N)Cc1ccccc1)C(C)C)C(=O)N[C@@H](CC(C)C)C(=O)N[C@@H](CCCCN)C(=O)N[C@H](C(=O)N[C@@H](CC(C)C)C(=O)N[C@@H](CCCNC(=N)N)C(=O)N[C@@H](CCCNC(=N)N)C(N)=O)[C@@H](C)CC [BiF2] (H-FLVKLILKILRR-NH2; N-terminus assumed) | 0.05 | 0.06 | less than 0.2
3 | CC[C@H](C)[C@H](NC(=O)[C@H](CC(C)C)NC(=O)[C@H](CCCCN)NC(=O)[C@@H](NC(=O)[C@H](CC(C)C)NC(=O)[C@@H](N)Cc1ccccc1)C(C)C)C(=O)N[C@@H](CC(C)C)C(N)=O [BiF] (H-FLVKLIL-NH2; N-terminus assumed) | 0.03 | 0.03 | less than 0.2
4 | CC[C@H](C)[C@H](NC(=O)CN)C(=O)NCC(=O)N[C@@H](C)C(=O)N[C@H](C(=O)N[C@@H](CC(C)C)C(=O)N[C@@H](CCCCN)C(=O)N[C@H](C(=O)N[C@@H](CC(C)C)C(=O)N[C@H](C(=O)N[C@H](C(=O)NCC(=O)N[C@@H](CC(C)C)C(=O)N1CCC[C@H]1C(=O)N[C@@H](C)C(=O)N[C@@H](CC(C)C)C(=O)N[C@H](C(=O)N[C@@H](CO)C(=O)N[C@@H](Cc1c[nH]c2ccccc12)C(=O)N[C@H](C(=O)N[C@@H](CCCCN)C(=O)N[C@@H](CCCNC(=N)N)C(=O)N[C@@H](CCCCN)C(=O)N[C@@H](CCCNC(=N)N)C(=O)N[C@@H](CCC(N)=O)C(=O)N[C@@H](CCC(N)=O)C(N)=O)[C@@H](C)CC)[C@@H](C)CC)[C@@H](C)O)[C@@H](C)O)C(C)C)C(C)C [Melittin, melittin, reference compound] | 0.03 | 0.07 | less than 0.2
5 | CC[C@H](C)[C@H](NC(=O)[C@H](CCCCN)NC(=O)[C@H](CCCCN)NC(=O)[C@@H](NC(=O)[C@H](CC(C)C)NC(=O)[C@@H](N)Cc1ccccc1)C(C)C)C(=O)N[C@@H](CCCCN)C(=O)N[C@@H](CCCCN)C(=O)N[C@H](C(=O)N[C@@H](CC(C)C)C(=O)N[C@@H](CCCNC(=N)N)C(=O)N[C@@H](CCCNC(=N)N)C(N)=O)[C@@H](C)CC [BiF2_5K7K] (H-FLVKKIKKILRR-NH2; N-terminus assumed) | 5.33 | 2.51 | 
